Assay results from patent publication US20240108662A1, “ENGINEERED CELLS FUNCTIONALIZED WITH IMMUNE CHECKPOINT MOLECULES AND USES THEREOF” (The University of North Carolina at Chapel Hill, priority 2020, published 2024).

Test: Proteomic analysis of native murine pancreata and decelled pancreatic ECM (Table 1)
Set-up: species or system mouse
Details: for Pancreatic ECM: Mean of log2(intensities): abundance of the listed protein in decelled pancreatic ECM; for Native pancreas tissue: Mean of log2(intensities): abundance of the listed protein in native murine pancreas tissue

B1: Q8BKS9 (protein, UniProt Q8BKS9 1-647, looked up)
chain: MEVKGKKKFTGKSPQTSQGKNKFHKNSESSSSKTFPRKAVKEGGPKVTSKNFEKGATKPGKKGVKQFKNKPQGGKGPKDKFQKANKFSKKRKFQPDGESDESGAKKPKWDDFKKKKKELKQSRQLSDKTNYDIVVRAKHIWESLRRKDCDKEKRVKLMSDLQKLIQGKIKTIAFAHDSTRVIQCFIQYGNEEQRKQAFQELQGDLVELSKAKYSRNIVKKFLMYGSKPQVAEIIRSFKGHVRKMLRHSEASAIVEYAYNDKAILEQRNMLTEELYGNTFQLYKSADHPTLDKVLELQPAKLELIMDEMKQILTPMAQKEAVIKHSLVHKVFLDFFTYAPPKPRSELIEAIREAVVYLAHTHDGARVAMHCLWHGTPKDRKVIVKTMKTYVEKVANGQYSHLVLLAAFDCIDDTKLVKQIIISEIISSLPSIVNDKYGRKVLLYLMSPRDPAHTVPELIELLQKGDGNAHSKKDTAIRRRELLESISPALLSYLQGHTQEVVLDKSACVLVSDMLGSATGDVQPAMDAIASLAAAELHPGGKDGELHVAEHPAGHLVLKWLLEQDKKMKESGKEGCFAKTLVERVGMKNLKSWASINRGAIILSSLLQSCDQEVVNKVKGGLKPLIPTLEKNKSSSRGIQTLLEKLTA
modifications: full-length
  Pancreatic ECM: Mean of log2(intensities): 25.11 a.u.
  Native pancreas tissue: Mean of log2(intensities): 21.62 a.u.

B2: Q9JKN1 (protein, UniProt Q9JKN1 1-378, looked up)
chain: MLPLSIKDDEYKPPKFNLFGKISGWFRSILSDKTSRNLFFFLCLNLSFAFVELLYGIWSNCLGLISDSFHMFFDSTAILAGLAASVISKWRDNDAFSYGYVRAEVLAGFVNGLFLIFTAFFIFSEGVERALAPPDVHHERLLLVSILGFVVNLVGIFVFNHGGHGHSHGSGHGHSHSLFNGALDHSHGHEDHCHSHEAKHGAAHSHDHDHAHGHGHLHSHDGPSFKATAGPSRQILQGVFLHILADTLGSIGVIASAIMMQNFGLMIADPICSILIAILIVVSVIPLLRESVGILMQRTPPSLENTLPQCYQRVQQLQGVYNLQEQHFWTLCSDVYVGTLKLVVAPDADARWILSQTHNIFTQAGVRQLYVQIDFAAM
modifications: full-length
  Pancreatic ECM: Mean of log2(intensities): 26.10 a.u.
  Native pancreas tissue: Mean of log2(intensities): 22.62 a.u.

B3: Q8BK08 (protein, UniProt Q8BK08 1-190, looked up)
chain: MAAWGRRRLGPGGGGSRERVSLSATDCYIVHEIYSGENAQDQFEYELEQALEAQYKYIVIEPTRIGDETARWITVGNCLHKTAVLAGTACLFTPLALPLDYSHYISLPAGVLSLACCTLYGISWQFDPCCKYQVEYDAYKLSRLPLHTLTSSTPVVLVRKDDLHRKRLHNTIALAALVYCVKKVYELYAV
modifications: full-length
  Pancreatic ECM: Mean of log2(intensities): 26.15 a.u.
  Native pancreas tissue: Mean of log2(intensities): 22.68 a.u.

B4: P35821 (protein, UniProt P35821 1-432, looked up)
chain: MEMEKEFEEIDKAGNWAAIYQDIRHEASDFPCKVAKLPKNKNRNRYRDVSPFDHSRIKLHQEDNDYINASLIKMEEAQRSYILTQGPLPNTCGHFWEMVWEQKSRGVVMLNRIMEKGSLKCAQYWPQQEEKEMVFDDTGLKLTLISEDVKSYYTVRQLELENLTTKETREILHFHYTTWPDFGVPESPASFLNFLFKVRESGSLSLEHGPIVVHCSAGIGRSGTFCLADTCLLLMDKRKDPSSVDIKKVLLEMRRFRMGLIQTADQLRFSYLAVIEGAKFIMGDSSVQDQWKELSREDLDLPPEHVPPPPRPPKRTLEPHNGKCKELFSSHQWVSEETCGDEDSLAREEGRAQSSAMHSVSSMSPDTEVRRRMVGGGLQSAQASVPTEEELSSTEEEHKAHWPSHWKPFLVNVCMATLLATGAYLCYRVCFH
modifications: full-length
  Pancreatic ECM: Mean of log2(intensities): 24.58 a.u.
  Native pancreas tissue: Mean of log2(intensities): 21.10 a.u.

B5: Q99JR5 (protein, UniProt Q99JR5 1-466, looked up)
chain: MWGCWLGLLLLLLAGQAALEARRSRWRRELAPGLHLRGIRDAGGRYCQEQDMCCRGRADECALPYLGATCYCDLFCNRTVSDCCPDFWDFCLGIPPPFPPVQGCMHGGRIYPVFGTYWDNCNRCTCHEGGHWECDQEPCLVDPDMIKAINRGNYGWQAGNHSAFWGMTLDEGIRYRLGTIRPSSTVMNMNEIYTVLGQGEVLPTAFEASEKWPNLIHEPLDQGNCAGSWAFSTAAVASDRVSIHSLGHMTPILSPQNLLSCDTHHQQGCRGGRLDGAWWFLRRRGVVSDNCYPFSGREQNEASPTPRCMMHSRAMGRGKRQATSRCPNGQVDSNDIYQVTPAYRLGSDEKEIMKELMENGPVQALMEVHEDFFLYQRGIYSHTPVSQGRPEQYRRHGTHSVKITGWGEETLPDGRTIKYWTAANSWGPWWGERGHFRIVRGTNECDIETFVLGVWGRVGMEDMGHH
modifications: full-length
  Pancreatic ECM: Mean of log2(intensities): 27.48 a.u.
  Native pancreas tissue: Mean of log2(intensities): 22.50 a.u.

B6: Q9Z2Z6 (protein, UniProt Q9Z2Z6 1-301, looked up)
chain: MADEPKPISPFKNLLAGGFGGMCLVFVGHPLDTVKVRLQTQPPSLSGQPPMYSGTLDCFRKTLMREGITGLYRGMAAPIIGVTPMFAVCFFGFGLGKKLQQKSPEDELSYPQLFTAGMLSGVFTTGIMTPGERIKCLLQIQASSGENKYSGTLDCAKKLYQEFGIRGFYKGTVLTLMRDVPASGMYFMTYEWLKNLFTPEGKSVSDLSVPRILVAGGFAGIFNWAVAIPPDVLKSRFQTAPPGKYPNGFRDVLRELIREEGVTSLYKGFNAVMIRAFPANAACFLGFEIAMKFLNWIAPNL
modifications: full-length
  Pancreatic ECM: Mean of log2(intensities): 25.15 a.u.
  Native pancreas tissue: Mean of log2(intensities): 21.70 a.u.

B7: Q9DCA5 (protein, UniProt Q9DCA5 1-353, looked up)
chain: MAATKRKRRGGLEVQAKKPKRSSKDAGQPAKQADVAKEAEEENRDRIPGPVCKGKWKNKERILIFSSRGINFRTRHLMQDLRMLMPHSKADTKMDRKDKLFVINEVCEMKNCNKCIYFEAKKKQDLYMWLSNSPHGPSAKFLVQNIHTLAELKMTGNCLKGSRPLLSFDPAFDDLPHYALLKEFLIQIFSTPRYHPKSQPFVDHVFTFTILDNRIWFRNFQIIEEDAALVEIGPRFVLNLIKIFQGSFGGPTLYENPHYQSPNMHRRVIRSITAAKYRERQQVKDVQKLRKKEPKTILPHDPTADVFVIPAEEKPVEIQWVKPEPKVDLKARKRRIYKRHRKLQQKMSRGSAK
modifications: full-length
  Pancreatic ECM: Mean of log2(intensities): 25.61 a.u.
  Native pancreas tissue: Mean of log2(intensities): 22.17 a.u.

B8: Q3UGP8 (protein, UniProt Q3UGP8 1-474, looked up)
chain: MAQLEGYYFSAALSCTFLVSCLLFSAFSRALREPYMDEIFHLPQAQRYCEGRFSLSQWDPMITTLPGLYLVSVGVVKPASWLLGWSEHVICSIGVLRFVNLLFSVGNFYLLYLLFRKVQPRNKASSSIQRILSTLTLAVFPTLYFFNFLYYTEAGSVFFTLFAYLMCLYGNHRTSALLGFCGFMFRQTNIIWAAFCAGHLIAQKCSEAWKIELQKKKEERLAPTKGPLSELRRVLQFLLVYAMSLKNLRMLFLLTWPYVLLLLAFFAFVVVNGGIVVGDRSSHEACLHFPQLFYFFSFTAFFSFPHLLSLTKVKTFLSLVWKRRVQFSVVTLVSILLVWKFTYVHKYLLADNRHYTFYVWKRVFQRHEVVKYLLVPAYIFAGWAIADSLKAKSIFWNLMFFVCLVASTVPQKLLEFRYFILPYIIYRLNIPLPPISRLVCELGCYTVVNFVTFYIFLNKTFQWPNSQDIQRFMW
modifications: full-length
  Pancreatic ECM: Mean of log2(intensities): 24.79 a.u.
  Native pancreas tissue: Mean of log2(intensities): 21.36 a.u.

B9: Q9WVH9 (protein, UniProt Q9WVH9 1-448, looked up)
chain: MPGLKRILTVTILALWLPHPGNAQQQCTNGFDLDRQSGQCLDIDECRTIPEACRGDMMCVNQNGGYLCIPRTNPVYRGPYSNPYSTSYSGPYPAAAPPVPASNYPTISRPLVCRFGYQMDEGNQCVDVDECATDSHQCNPTQICINTEGGYTCSCTDGYWLLEGQCLDIDECRYGYCQQLCANVPGSYSCTCNPGFTLNDDGRSCQDVNECETENPCVQTCVNTYGSFICRCDPGYELEEDGIHCSDMDECSFSEFLCQHECVNQPGSYFCSCPPGYVLLDDNRSCQDINECEHRNHTCTSLQTCYNLQGGFKCIDPISCEEPYLLIGENRCMCPAEHTSCRDQPFTILYRDMDVVSGRSVPADIFQMQATTRYPGAYYIFQIKSGNEGREFYMRQTGPISATLVMTRPIKGPRDIQLDLEMITVNTVINFRGSSVIRLRIYVSQYPF
modifications: full-length
  Pancreatic ECM: Mean of log2(intensities): 26.11 a.u.
  Native pancreas tissue: Mean of log2(intensities): 21.21 a.u.

B10: Q4VA53 (protein, UniProt Q4VA53 1-1446, looked up)
chain: MAHSKTRTNDGKITYPPGVKEISDKISKEEMVRRLKMVVKTFMDMDQDSEEEKELYLNLALHLASDFFLKHPDKDVRLLVACCLADIFRIYAPEAPYTSPDKLKDIFMFITRQLKGLEDTKSPQFNRYFYLLENIAWVKSYNICFELEDSNEIFTQLYRTLFSVINNGHNQKVHMHMVDLMSSIICEGDTVSQELLDTVLVNLVPAHKNLNKQAYDLAKALLKRTAQAIEPYITNFFNQVLMLGKTSISDLSEHVFDLILELYNIDSHLLLSVLPQLEFKLKSNDNEERLQVVKLLAKMFGAKDSELASQNKPLWQCYLGRFNDIHVPIRLECVKFASHCLMNHPDLAKDLTEYLKVRSHDPEEAIRHDVIVSIVTAAKKDILLVNDHLLNFVRERTLDKRWRVRKEAMMGLAQIYKKYSLQSAAGKDAAKQISWVKDKLLHIYYQNSIDDRLLVERIFAQYMVPHNLETTERMKCLYYLYATLDLNAVKALNEMWKCQNLLRHQVKDLLDLIKQPKTDASVKAIFSKVMVITRNLPDPGKAQDFMKKFTQVLEDDEKIRKQLEALVSPTCSCKQAEGCVREITKKLGNPKQPTNPFLEMIKFLLERIAPVHIDTESISALIKQVNKSIDGTADDEDEGVPTDQAIRAGLELLKVLSFTHPISFHSAETFESLLACLKMDDEKVAEAALQIFKNTGSKIEEDFPHIRSALLPVLHHKSKKGPPRQAKYAIHCIHAIFSSKETQFAQIFEPLHKSLDPSNLEHLITPLVTIGHIALLAPDQFAAPLKSLVATFIVKDLLMNDRLPGKKTTKLWVPDEEVSPETMVKIQAIKMMVRWLLGMKNNHSKSGTSTLRLLTTILHSDGDLTEQGKISKPDMSRLRLAAGSAIVKLAQEPCYHEIITLEQYQLCALAINDECYQVRQVFAQKLHKGLSRLRLPLEYMAICALCAKDPVKERRAHARQCLVKNITVRREYLKQHAAVSEKLLSLLPEYVVPYTIHLLAHDPDYVKVQDIEQLKDVKECLWFVLEILMAKNENNSHAFIRKMVENIKQTKDAQGPDDTKMNEKLYTVCDVAMNIIMSKSTTYSLESPKDPVLPARFFTQPDKNFSNTKNYLPPEMKSFFTPGKPKTANVLGAVNKPLSSAGKQSQTKSSRMETVSNASSSSNPSSPGRIKGRLDSSEMDHSENEDYTMSSPLPGKKSDKREDPDLSELEKPRSRKKAPVTDPEEKLGMDDLTKLVQEQKPKGSQRGRKRGRTASDSDEQQWPEEKRHKEELLENEDEQNSPPKKGKRGRPPKPLGGGTSKEEPTMKTSKKGNKKKLVPPVVDDDEEEERQIGNTEHKSKSKQHRTSKRAQQRAESPETSAVESTQSTPQKGRGRPSKAPSPSQPPKKIRVGRSKQVATKENDSSEEMDVLQASSPVSDDTTQEGAEEEDISVGNVRRRSSKRERR
modifications: full-length
  Pancreatic ECM: Mean of log2(intensities): 24.96 a.u.
  Native pancreas tissue: Mean of log2(intensities): 21.56 a.u.
